Data as given in patent US7666868B2, “N-sulphonylpyrroles and their use as histone deacetylase inhibitors” (4SC AG, priority 2005, dated 2010).
Some entries share one result that the patent states for a list of compounds. Some compounds share one range, which may span the group rather than tell each member.

Amino acid sequences for entries named in this document (tags omitted).
UniProt Q13547, whole entry: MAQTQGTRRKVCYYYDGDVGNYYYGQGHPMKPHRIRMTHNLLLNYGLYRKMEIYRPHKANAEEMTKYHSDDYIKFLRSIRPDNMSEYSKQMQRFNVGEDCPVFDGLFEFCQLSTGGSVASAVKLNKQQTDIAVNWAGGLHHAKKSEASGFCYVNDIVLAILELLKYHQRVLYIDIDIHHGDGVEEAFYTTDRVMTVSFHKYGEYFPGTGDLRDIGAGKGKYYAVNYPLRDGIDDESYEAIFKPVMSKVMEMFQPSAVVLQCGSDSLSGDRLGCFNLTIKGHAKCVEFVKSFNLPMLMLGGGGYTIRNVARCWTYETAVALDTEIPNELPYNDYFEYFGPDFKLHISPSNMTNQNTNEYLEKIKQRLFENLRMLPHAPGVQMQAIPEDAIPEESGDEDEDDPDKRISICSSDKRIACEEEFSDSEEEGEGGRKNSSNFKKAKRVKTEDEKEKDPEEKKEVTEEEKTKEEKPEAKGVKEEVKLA

Legend:
[1] = test system: HDAC activity derived from HeLa cell nuclear extracts (mixture of class I and II HDACs); test: Fluorimetric HDAC activity assay with HeLa cell nuclear extract; format: biochemical, human; conditions: substrate Ac-NH-GGK(Ac)-AMC 25 μM, 90 min at 30° C., limits printed with their own units (nM to μM), read-out: IC50 (HDAC inhibitory activity)
[2] = molecular target: T1, recombinant flag-HDAC1 (Human HDAC1 fused with the flag epitope) (Homo sapiens, UniProt Q13547); test: rHDAC1 enzymatic assay; format: biochemical; conditions: flag-HDAC1, 6 μM Ac-NH-GGK(Ac)-AMC, 3 h at 30° C.; limits printed with their own units (nM to μM)
T1 construct: made in house

NCc1ccc(-c2ccccc2)cc1S(=O)(=O)n1ccc(/C=C/C(=O)NO)c1 [Compound 91, (E)-3-[1-(4-Aminomethyl-biphenyl-3-sulfonyl)-1H-pyrrol-3-yl]-N-hydroxy-acrylamide]
IC50 [1]: 1.7 to 32000 nM | IC50 [2]: 1 to 940 nM

CS(=O)(=O)Nc1ccc(-c2ccc(S(=O)(=O)n3ccc(/C=C/C(=O)Nc4ccccc4N)c3)cc2)cc1 [Compound 53, (E)-N-(2-Amino-phenyl)-3-[1-(4′-methanesulfonylamino-biphenyl-4-sulfonyl)-1H-pyrrol-3-yl]-acrylamide]
IC50 [1]: 0.32 to 10000 nM | IC50 [2]: 1 to 940 nM

O=C(/C=C/c1ccn(S(=O)(=O)c2ccc(-c3ccc(OCCN4CCCC4)cc3)nc2)c1)NO [Compound 92, (E)-N-Hydroxy-3-(1-{6-[4-(2-pyrrolidin-1-yl-ethoxy)-phenyl]-pyridine-3-sulfonyl}-1H-pyrrol-3-yl)-acrylamide]
IC50 [1]: 1.7 to 32000 nM | IC50 [2]: 1 to 940 nM

O=C(/C=C/c1ccn(S(=O)(=O)c2ccc(-c3ccc(OCCN4CCOCC4)cc3)s2)c1)NO [Compound 56, (E)-N-Hydroxy-3-(1-{5-[4-(2-morpholin-4-yl-ethoxy)-phenyl]-thiophene-2-sulfonyl}-1H-pyrrol-3-yl)-acrylamide]
IC50 [1]: 0.32 to 10000 nM | IC50 [2]: 1 to 940 nM

O=C(/C=C/c1ccn(S(=O)(=O)c2ccc(-c3ccc(OCCCN4CCOCC4)cc3)cc2)c1)NO [Compound 78, (E)-N-Hydroxy-3-{1-[4′-(3-morpholin-4-yl-propoxy)-biphenyl-4-sulfonyl]-1H-pyrrol-3-yl}-acrylamide]
IC50 [1]: 1.7 to 32000 nM | IC50 [2]: 1 to 940 nM

CN1CCC(CCOc2ccc(-c3ccc(S(=O)(=O)n4ccc(C=CC(=O)NO)c4)cc3)cc2)CC1 [Compound 68, (E)-N-Hydroxy-3-(1,4′-[2-(1-methyl-piperidin-4-yl)-ethoxy]biphenyl-4-sulfonyl)-1H-pyrrol-3-yl)-acrylamide]
IC50 [1]: 1.7 to 32000 nM | IC50 [2]: 1 to 940 nM

Nc1ccc(-c2ccc(S(=O)(=O)n3ccc(/C=C/C(=O)Nc4ccccc4N)c3)cc2)cn1 [Compound 6, (E)-N-(2-Amino-phenyl)-3-{1-[4-(6-amino-pyridin-3-yl)-benzenesulfonyl]-1H-pyrrol-3-yl}-acrylamide]
IC50 [1]: 0.75 to 7500 nM | IC50 [2]: 1 to 940 nM

CN(C)CCNC(=O)c1ccc(-c2cccc(S(=O)(=O)n3ccc(C=CC(=O)NO)c3)c2)cc1 [Compound 30, 3′-3-((E)-2-Hydroxycarbamoyl-vinyl)-pyrrole-1 sulfonyl]-biphenyl-4-carboxylic acid (2-dimethylamino-ethyl)-amide]
IC50 [1]: 0.32 to 10000 nM | IC50 [2]: 1 to 940 nM

CN1CCN(CCOc2ccc(-c3ccc(S(=O)(=O)n4ccc(/C=C/C(=O)NO)c4)cc3)cc2)CC1 [Compound 76, (E)-N-Hydroxy-3-(1-{4′-[2-(4-methyl-piperazin-1-yl)-ethoxy]-biphenyl-4-sulfonyl}-1H-pyrrol-3-yl)-acrylamide]
IC50 [1]: 1.7 to 32000 nM | IC50 [2]: 1 to 940 nM

Nc1cccc(-c2ccc(S(=O)(=O)n3ccc(/C=C/C(=O)NO)c3)cc2)c1 [Compound 66, (E)-3-[1-(3′-Amino-biphenyl-4-sulfonyl)-1H-pyrrol-3-yl]-N-hydroxy-acrylamide]
IC50 [1]: 1.7 to 32000 nM | IC50 [2]: 1 to 940 nM

COc1ccc(-c2ccc(S(=O)(=O)n3ccc(/C=C/C(=O)Nc4ccccc4N)c3)cc2)cn1 [Compound 5, (E)-N-(2-Amino-phenyl)-3-{1-[4-(6-methoxy-pyridin-3-yl)-benzenesulfonyl]-1H-pyrrol-3-yl}-acrylamide]
IC50 [1]: 0.75 to 7500 nM | IC50 [2]: 1 to 940 nM

CN(C)Cc1ccc(-c2ccc(S(=O)(=O)n3ccc(/C=C/C(=O)Nc4ccccc4N)c3)s2)cc1 [Compound 95, (E)-N-(2-Amino-phenyl)-3-{1-[5-(4-dimethylaminomethyl-phenyl)-thiophene-2-sulfonyl]-1H-pyrrol-3-yl}-acrylamide]
IC50 [1]: 1.7 to 32000 nM | IC50 [2]: 1 to 940 nM

O=C(/C=C/c1ccn(S(=O)(=O)c2ccc(-c3ccc(OCCCN4CCOCC4)cc3)s2)c1)NO [Compound 57, (E)-N-Hydroxy-3-(1-{5-[4-(3-morpholin-4-yl-propoxy)-phenyl]-thiophene-2-sulfonyl}-1H-pyrrol-3-yl)-acrylamide]
IC50 [1]: 0.32 to 10000 nM | IC50 [2]: 1 to 940 nM

CN(C)Cc1ccc(-c2ccc(S(=O)(=O)n3ccc(/C=C/C(=O)Nc4ccccc4N)c3)cn2)cc1 [Compound 89, (E)-N-(2-Amino-phenyl)-3-{1-[6-(4-dimethylaminomethyl-phenyl)-pyridine-3-sulfonyl]-1H-pyrrol-3-yl}-acrylamide]
IC50 [1]: 1.7 to 32000 nM | IC50 [2]: 1 to 940 nM

O=C(/C=C/c1ccn(S(=O)(=O)c2cc(-c3ccccc3)ccc2OCCCN2CCOCC2)c1)NO [Compound 38, (E)-N-Hydroxy-3-{1-[4-(3-morpholin-4-yl-propoxy)-biphenyl-3-sulfonyl]-1H-pyrrol-3-yl}-acrylamide]
IC50 [1]: 0.32 to 10000 nM | IC50 [2]: 1 to 940 nM

O=C(/C=C/c1ccn(S(=O)(=O)c2cccc(-c3cccc(CCN4CCOCC4)c3)c2)c1)NO [Compound 20, (E)-N-Hydroxy-3-{1-[3′-(2-morpholin-4-yl-ethyl)-biphenyl-3-sulfonyl]-1H-pyrrol-3-yl}-acrylamide]
IC50 [1]: 0.32 to 10000 nM | IC50 [2]: 1 to 940 nM

CN(C)CCNC(=O)c1cccc(-c2ccc(S(=O)(=O)n3ccc(/C=C/C(=O)Nc4ccccc4N)c3)cc2)c1 [Compound 44, 4′-{3-[(E)-2-(2-Amino-phenylcarbamoyl)-vinyl]-pyrrole-1-sulfonyl}-biphenyl-3-carboxylic acid (2-dimethylamino-ethyl)-amide]
IC50 [1]: 0.32 to 10000 nM | IC50 [2]: 1 to 940 nM

O=C(/C=C/c1ccn(S(=O)(=O)c2ccc(-c3ccc(CN4CCOCC4)cc3)s2)c1)NO [Compound 54, (E)-N-Hydroxy-3-{1-[5-(4-morpholin-4-ylmethyl-phenyl)-thiophene-2-sulfonyl]-1H-pyrrol-3-yl}-acrylamide]
IC50 [1]: 0.32 to 10000 nM | IC50 [2]: 1 to 940 nM

CS(=O)(=O)Nc1ccccc1-c1ccc(S(=O)(=O)n2ccc(/C=C/C(=O)NO)c2)cc1 [Compound 21, (E)-N-Hydroxy-3-[1-(2′-methanesulfonylamino-biphenyl-4-sulfonyl)-1H-pyrrol-3-yl]-acrylamide]
IC50 [1]: 0.32 to 10000 nM | IC50 [2]: 1 to 940 nM

CS(=O)(=O)Nc1ccc(-c2ccc(S(=O)(=O)n3ccc(/C=C/C(=O)NO)c3)cc2)cc1 [Compound 23, (E)-N-Hydroxy-3-[1-(4′-methanesulfonylamino-biphenyl-4-sulfonyl)-1H-pyrrol-3-yl]-acrylamide]
IC50 [1]: 0.32 to 10000 nM | IC50 [2]: 1 to 940 nM

O=C(/C=C/c1ccn(S(=O)(=O)c2ccc(-c3ccc(OCCCN4CCCC4)cc3)cc2)c1)NO [Compound 81, (E)-N-Hydroxy-3-{1-[4′-(3-pyrrolidin-1-yl-propoxy)-biphenyl-4-sulfonyl]-1H-pyrrol-3-yl}-acrylamide]
IC50 [1]: 1.7 to 32000 nM | IC50 [2]: 1 to 940 nM

CN(C)Cc1ccccc1-c1cccc(S(=O)(=O)n2ccc(/C=C/C(=O)NO)c2)c1 [Compound 41, (E)-3-[1-(2′-Dimethylaminomethyl-biphenyl-3-sulfonyl)-1H-pyrrol-3-yl]-N-hydroxy-acrylamide]
IC50 [1]: 0.32 to 10000 nM | IC50 [2]: 1 to 940 nM

CC(=O)NCc1ccc(-c2ccc(S(=O)(=O)n3ccc(/C=C/C(=O)Nc4ccccc4N)c3)cc2)cc1 [Compound 97, (E)-3-{1-[4′-(Acetylamino-methyl)-biphenyl-4-sulfonyl]-1H-pyrrol-3-yl}-N-(2-amino-phenyl)-acrylamide]
IC50 [1]: 1.7 to 32000 nM | IC50 [2]: 1 to 940 nM

Nc1ccc(-c2cccc(S(=O)(=O)n3ccc(/C=C/C(=O)NO)c3)c2)cn1 [Compound 10, (E)-3-{1-[3-(6-Amino-pyridin-3-yl)-benzenesulfonyl]-1H-pyrrol-3-yl}-N-hydroxy-acrylamide]
IC50 [1]: 0.32 to 10000 nM | IC50 [2]: 1 to 940 nM

O=C(/C=C/c1ccn(S(=O)(=O)c2ccc(-c3ccc(CCN4CCOCC4)cc3)cc2)c1)NO [Compound 8, (E)-N-Hydroxy-3-{1-[4′-(2-morpholin-4-yl-ethyl)-biphenyl-4-sulfonyl]-1H-pyrrol-3-yl}-acrylamide]
IC50 [1]: 0.32 to 10000 nM | IC50 [2]: 1 to 940 nM

CC(=O)Nc1ccc(-c2ccc(S(=O)(=O)n3ccc(/C=C/C(=O)Nc4ccccc4N)c3)cc2)cc1 [Compound 49, (E)-3-[1-(4′-Acetylamino-biphenyl-4-sulfonyl)-1H-pyrrol-3-yl]-N-(2-amino-phenyl)-acrylamide]
IC50 [2]: 1 to 940 nM

COc1ccc(-c2ccc(S(=O)(=O)n3ccc(/C=C/C(=O)NO)c3)cc2)cc1 [Compound 82, (E)-N-Hydroxy-3-[1-(4′-methoxy-biphenyl-4-sulfonyl)-1H-pyrrol-3-yl]-acrylamide]
IC50 [1]: 1.7 to 32000 nM | IC50 [2]: 1 to 940 nM

CN1CCN(c2cc(-c3ccc(S(=O)(=O)n4ccc(/C=C/C(=O)NO)c4)s3)ccn2)CC1 [Compound 42, (E)-N-Hydroxy-3-(1-{5-[2-(4-methyl-piperazin-1-yl)-pyridin-4-yl]-thiophene-2-sulfonyl}-1H-pyrrol-3-yl)-acrylamide]
IC50 [1]: 0.32 to 10000 nM | IC50 [2]: 1 to 940 nM

Nc1ccc(-c2ccc(S(=O)(=O)n3ccc(C=CC(=O)NO)c3)cc2)cn1 [Compound 4, (E)-3-∴1-[4-(6-Amino-pyridin-3-yl)-benzenesulfonyl]-1H-pyrrol-3-yl)-N-hydroxy-acrylamide]
IC50 [1]: 0.75 to 7500 nM | IC50 [2]: 1 to 940 nM

O=C(/C=C/c1ccn(S(=O)(=O)c2cccc(-c3ccc(OCCN4CCOCC4)cc3)c2)c1)NO [Compound 34, (E)-N-Hydroxy-3-{1-[4′-(2-morpholin-4-yl-ethoxy)-biphenyl-3-sulfonyl]-1H-pyrrol-3-yl}-acrylamide]
IC50 [1]: 0.32 to 10000 nM | IC50 [2]: 1 to 940 nM

CN(C)S(=O)(=O)c1ccc(-c2ccc(S(=O)(=O)n3ccc(/C=C/C(=O)Nc4ccccc4N)c3)cc2)cc1 [Compound 39, (E)-N-(2-Amino-phenyl)-3-[1-(4′-dimethylsulfamoyl-biphenyl-4-sulfonyl)-1H-pyrrol-3-yl]-acrylamide]
IC50 [2]: 1 to 940 nM
